Nine molecules from PMC8152475 (Biomedicines, 2021) can be followed below.

Protein sequences, listed by entry. Tags and fused reporters are not part of them. Residues count along the entry.
UniProt P14598: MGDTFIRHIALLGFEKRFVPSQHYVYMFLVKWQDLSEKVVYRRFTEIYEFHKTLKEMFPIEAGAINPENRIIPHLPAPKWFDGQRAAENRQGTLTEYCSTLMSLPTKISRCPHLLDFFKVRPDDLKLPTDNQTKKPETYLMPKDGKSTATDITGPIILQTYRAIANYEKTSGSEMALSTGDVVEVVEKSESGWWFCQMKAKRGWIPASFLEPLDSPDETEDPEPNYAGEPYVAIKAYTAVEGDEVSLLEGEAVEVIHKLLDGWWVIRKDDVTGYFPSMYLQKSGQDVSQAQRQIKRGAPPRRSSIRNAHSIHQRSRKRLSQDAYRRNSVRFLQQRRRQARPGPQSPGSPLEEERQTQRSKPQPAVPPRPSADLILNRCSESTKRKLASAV
UniProt P9WIN9, residues 24-228: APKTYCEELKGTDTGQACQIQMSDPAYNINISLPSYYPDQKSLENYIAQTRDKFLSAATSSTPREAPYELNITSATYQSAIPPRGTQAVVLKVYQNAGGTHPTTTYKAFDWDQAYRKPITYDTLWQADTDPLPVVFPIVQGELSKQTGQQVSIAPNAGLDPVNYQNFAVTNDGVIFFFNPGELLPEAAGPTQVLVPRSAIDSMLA

In test [1] the target is T1, GST-MPT63 (Mycobacterium tuberculosis) (UniProt P9WIP1).
T1 sequence: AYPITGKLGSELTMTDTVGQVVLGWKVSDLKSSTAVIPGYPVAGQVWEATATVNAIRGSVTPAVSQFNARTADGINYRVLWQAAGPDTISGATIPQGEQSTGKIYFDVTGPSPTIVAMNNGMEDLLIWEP
Briefly: pull-down.

The target in test [2] is T2, recombinant MPT63 (rMPT63) (Mycobacterium tuberculosis H37Rv) (UniProt P9WIP1).
T2 sequence: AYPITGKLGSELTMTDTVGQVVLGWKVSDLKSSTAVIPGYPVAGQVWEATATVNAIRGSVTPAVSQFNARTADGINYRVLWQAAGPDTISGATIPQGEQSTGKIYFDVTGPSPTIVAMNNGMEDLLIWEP
Description: co-IP; only the target purified.

In another test the target is T3, GST-TBK1 (UniProt Q9UHD2).
T3 sequence: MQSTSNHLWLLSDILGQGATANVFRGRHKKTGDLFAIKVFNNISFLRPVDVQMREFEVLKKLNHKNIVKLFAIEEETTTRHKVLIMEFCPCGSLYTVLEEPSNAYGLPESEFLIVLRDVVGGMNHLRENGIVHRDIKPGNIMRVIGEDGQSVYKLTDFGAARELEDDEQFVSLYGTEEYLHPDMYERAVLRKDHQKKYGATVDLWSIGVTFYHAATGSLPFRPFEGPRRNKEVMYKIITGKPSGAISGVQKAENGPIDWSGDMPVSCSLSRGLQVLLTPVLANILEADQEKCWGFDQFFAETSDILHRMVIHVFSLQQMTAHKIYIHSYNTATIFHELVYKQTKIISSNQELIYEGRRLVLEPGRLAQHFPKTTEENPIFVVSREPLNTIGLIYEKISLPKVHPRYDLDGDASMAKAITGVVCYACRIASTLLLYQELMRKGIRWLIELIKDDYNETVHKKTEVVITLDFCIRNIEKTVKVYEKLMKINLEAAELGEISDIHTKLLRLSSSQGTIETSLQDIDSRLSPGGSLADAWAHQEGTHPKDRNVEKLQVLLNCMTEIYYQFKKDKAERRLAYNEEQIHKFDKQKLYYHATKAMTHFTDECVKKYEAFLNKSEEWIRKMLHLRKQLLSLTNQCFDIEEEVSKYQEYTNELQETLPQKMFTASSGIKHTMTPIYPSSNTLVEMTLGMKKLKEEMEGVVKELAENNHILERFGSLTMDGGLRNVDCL
Briefly: pull-down.

A further test concerns the target GST-p47phox (UniProt P14598). Briefly: pull-down.
Test [3] concerns the target recombinant MPT64 (rMPT64) (Mycobacterium tuberculosis H37Rv) (UniProt P9WIN9). Briefly: co-IP; only the target purified.
The target of test [4] is GST-MPT64 (Mycobacterium tuberculosis) (UniProt P9WIN9). Description: pull-down.

These are yes or no findings as the source states them, for the method shown. In cells and extracts the contact can be indirect. Some binding calls cover weakened binding; strength is not graded here. For some of these results: Sequences can lack the tags named with a protein.

As for V5-p47phox (from UniProt P14598 1-390), the binding entry in test [1] is on record as “binds”.

Consider “phosphorylated p47phox (S345 and S359), endogenous in THP-1 (from UniProt P14598 1-390)”, for which the binding result in test [2] was “binds”.

On to “Neutrophil cytosol factor 1 (p47phox), endogenous in THP-1 (from UniProt P14598 1-390)”, for which, in test [2], the binding result was “binds”.

B1: Myc-MPT63 (protein, UniProt P9WIP1 30-159)
chain: AYPITGKLGSELTMTDTVGQVVLGWKVSDLKSSTAVIPGYPVAGQVWEATATVNAIRGSVTPAVSQFNARTADGINYRVLWQAAGPDTISGATIPQGEQSTGKIYFDVTGPSPTIVAMNNGMEDLLIWEP
For B1, the binding entry with GST-TBK1 and in the test with GST-p47phox was “binds” in each case.

B2: TANK-binding kinase (TBK1), endogenous in THP-1 (protein, UniProt Q9UHD2 1-729)
chain: MQSTSNHLWLLSDILGQGATANVFRGRHKKTGDLFAIKVFNNISFLRPVDVQMREFEVLKKLNHKNIVKLFAIEEETTTRHKVLIMEFCPCGSLYTVLEEPSNAYGLPESEFLIVLRDVVGGMNHLRENGIVHRDIKPGNIMRVIGEDGQSVYKLTDFGAARELEDDEQFVSLYGTEEYLHPDMYERAVLRKDHQKKYGATVDLWSIGVTFYHAATGSLPFRPFEGPRRNKEVMYKIITGKPSGAISGVQKAENGPIDWSGDMPVSCSLSRGLQVLLTPVLANILEADQEKCWGFDQFFAETSDILHRMVIHVFSLQQMTAHKIYIHSYNTATIFHELVYKQTKIISSNQELIYEGRRLVLEPGRLAQHFPKTTEENPIFVVSREPLNTIGLIYEKISLPKVHPRYDLDGDASMAKAITGVVCYACRIASTLLLYQELMRKGIRWLIELIKDDYNETVHKKTEVVITLDFCIRNIEKTVKVYEKLMKINLEAAELGEISDIHTKLLRLSSSQGTIETSLQDIDSRLSPGGSLADAWAHQEGTHPKDRNVEKLQVLLNCMTEIYYQFKKDKAERRLAYNEEQIHKFDKQKLYYHATKAMTHFTDECVKKYEAFLNKSEEWIRKMLHLRKQLLSLTNQCFDIEEEVSKYQEYTNELQETLPQKMFTASSGIKHTMTPIYPSSNTLVEMTLGMKKLKEEMEGVVKELAENNHILERFGSLTMDGGLRNVDCL
Regarding B2, the binding entry in test [2] and in test [3] was “binds” throughout.

B3: phosphorylated TBK1 (S172), endogenous in THP-1 (protein, UniProt Q9UHD2 1-729)
chain: MQSTSNHLWLLSDILGQGATANVFRGRHKKTGDLFAIKVFNNISFLRPVDVQMREFEVLKKLNHKNIVKLFAIEEETTTRHKVLIMEFCPCGSLYTVLEEPSNAYGLPESEFLIVLRDVVGGMNHLRENGIVHRDIKPGNIMRVIGEDGQSVYKLTDFGAARELEDDEQFVSLYGTEEYLHPDMYERAVLRKDHQKKYGATVDLWSIGVTFYHAATGSLPFRPFEGPRRNKEVMYKIITGKPSGAISGVQKAENGPIDWSGDMPVSCSLSRGLQVLLTPVLANILEADQEKCWGFDQFFAETSDILHRMVIHVFSLQQMTAHKIYIHSYNTATIFHELVYKQTKIISSNQELIYEGRRLVLEPGRLAQHFPKTTEENPIFVVSREPLNTIGLIYEKISLPKVHPRYDLDGDASMAKAITGVVCYACRIASTLLLYQELMRKGIRWLIELIKDDYNETVHKKTEVVITLDFCIRNIEKTVKVYEKLMKINLEAAELGEISDIHTKLLRLSSSQGTIETSLQDIDSRLSPGGSLADAWAHQEGTHPKDRNVEKLQVLLNCMTEIYYQFKKDKAERRLAYNEEQIHKFDKQKLYYHATKAMTHFTDECVKKYEAFLNKSEEWIRKMLHLRKQLLSLTNQCFDIEEEVSKYQEYTNELQETLPQKMFTASSGIKHTMTPIYPSSNTLVEMTLGMKKLKEEMEGVVKELAENNHILERFGSLTMDGGLRNVDCL
modifications: phosphoserine at 172
Turning to B3, the binding result in test [2] and in test [3] was “binds” throughout.

B4: Flag-TBK1 (protein, UniProt Q9UHD2 1-729)
chain: MQSTSNHLWLLSDILGQGATANVFRGRHKKTGDLFAIKVFNNISFLRPVDVQMREFEVLKKLNHKNIVKLFAIEEETTTRHKVLIMEFCPCGSLYTVLEEPSNAYGLPESEFLIVLRDVVGGMNHLRENGIVHRDIKPGNIMRVIGEDGQSVYKLTDFGAARELEDDEQFVSLYGTEEYLHPDMYERAVLRKDHQKKYGATVDLWSIGVTFYHAATGSLPFRPFEGPRRNKEVMYKIITGKPSGAISGVQKAENGPIDWSGDMPVSCSLSRGLQVLLTPVLANILEADQEKCWGFDQFFAETSDILHRMVIHVFSLQQMTAHKIYIHSYNTATIFHELVYKQTKIISSNQELIYEGRRLVLEPGRLAQHFPKTTEENPIFVVSREPLNTIGLIYEKISLPKVHPRYDLDGDASMAKAITGVVCYACRIASTLLLYQELMRKGIRWLIELIKDDYNETVHKKTEVVITLDFCIRNIEKTVKVYEKLMKINLEAAELGEISDIHTKLLRLSSSQGTIETSLQDIDSRLSPGGSLADAWAHQEGTHPKDRNVEKLQVLLNCMTEIYYQFKKDKAERRLAYNEEQIHKFDKQKLYYHATKAMTHFTDECVKKYEAFLNKSEEWIRKMLHLRKQLLSLTNQCFDIEEEVSKYQEYTNELQETLPQKMFTASSGIKHTMTPIYPSSNTLVEMTLGMKKLKEEMEGVVKELAENNHILERFGSLTMDGGLRNVDCL
With B4, the binding entry in test [1] and in test [4] was “binds” throughout.

B5: hexokinase 2 (HK2), endogenous in THP-1 (protein, UniProt P52789 1-917)
chain: MIASHLLAYFFTELNHDQVQKVDQYLYHMRLSDETLLEISKRFRKEMEKGLGATTHPTAAVKMLPTFVRSTPDGTEHGEFLALDLGGTNFRVLWVKVTDNGLQKVEMENQIYAIPEDIMRGSGTQLFDHIAECLANFMDKLQIKDKKLPLGFTFSFPCHQTKLDESFLVSWTKGFKSSGVEGRDVVALIRKAIQRRGDFDIDIVAVVNDTVGTMMTCGYDDHNCEIGLIVGTGSNACYMEEMRHIDMVEGDEGRMCINMEWGAFGDDGSLNDIRTEFDQEIDMGSLNPGKQLFEKMISGMYMGELVRLILVKMAKEELLFGGKLSPELLNTGRFETKDISDIEGEKDGIRKAREVLMRLGLDPTQEDCVATHRICQIVSTRSASLCAATLAAVLQRIKENKGEERLRSTIGVDGSVYKKHPHFAKRLHKTVRRLVPGCDVRFLRSEDGSGKGAAMVTAVAYRLADQHRARQKTLEHLQLSHDQLLEVKRRMKVEMERGLSKETHASAPVKMLPTYVCATPDGTEKGDFLALDLGGTNFRVLLVRVRNGKWGGVEMHNKIYAIPQEVMHGTGDELFDHIVQCIADFLEYMGMKGVSLPLGFTFSFPCQQNSLDESILLKWTKGFKASGCEGEDVVTLLKEAIHRREEFDLDVVAVVNDTVGTMMTCGFEDPHCEVGLIVGTGSNACYMEEMRNVELVEGEEGRMCVNMEWGAFGDNGCLDDFRTEFDVAVDELSLNPGKQRFEKMISGMYLGEIVRNILIDFTKRGLLFRGRISERLKTRGIFETKFLSQIESDCLALLQVRAILQHLGLESTCDDSIIVKEVCTVVARRAAQLCGAGMAAVVDRIRENRGLDALKVTVGVDGTLYKLHPHFAKVMHETVKDLAPKCDVSFLQSEDGSGKGAALITAVACRIREAGQR
For the molecule B5, the binding entry in test [3] is on record as “binds”.

B6: Flag-HK2 (protein, UniProt P52789 1-917)
chain: MIASHLLAYFFTELNHDQVQKVDQYLYHMRLSDETLLEISKRFRKEMEKGLGATTHPTAAVKMLPTFVRSTPDGTEHGEFLALDLGGTNFRVLWVKVTDNGLQKVEMENQIYAIPEDIMRGSGTQLFDHIAECLANFMDKLQIKDKKLPLGFTFSFPCHQTKLDESFLVSWTKGFKSSGVEGRDVVALIRKAIQRRGDFDIDIVAVVNDTVGTMMTCGYDDHNCEIGLIVGTGSNACYMEEMRHIDMVEGDEGRMCINMEWGAFGDDGSLNDIRTEFDQEIDMGSLNPGKQLFEKMISGMYMGELVRLILVKMAKEELLFGGKLSPELLNTGRFETKDISDIEGEKDGIRKAREVLMRLGLDPTQEDCVATHRICQIVSTRSASLCAATLAAVLQRIKENKGEERLRSTIGVDGSVYKKHPHFAKRLHKTVRRLVPGCDVRFLRSEDGSGKGAAMVTAVAYRLADQHRARQKTLEHLQLSHDQLLEVKRRMKVEMERGLSKETHASAPVKMLPTYVCATPDGTEKGDFLALDLGGTNFRVLLVRVRNGKWGGVEMHNKIYAIPQEVMHGTGDELFDHIVQCIADFLEYMGMKGVSLPLGFTFSFPCQQNSLDESILLKWTKGFKASGCEGEDVVTLLKEAIHRREEFDLDVVAVVNDTVGTMMTCGFEDPHCEVGLIVGTGSNACYMEEMRNVELVEGEEGRMCVNMEWGAFGDNGCLDDFRTEFDVAVDELSLNPGKQRFEKMISGMYLGEIVRNILIDFTKRGLLFRGRISERLKTRGIFETKFLSQIESDCLALLQVRAILQHLGLESTCDDSIIVKEVCTVVARRAAQLCGAGMAAVVDRIRENRGLDALKVTVGVDGTLYKLHPHFAKVMHETVKDLAPKCDVSFLQSEDGSGKGAALITAVACRIREAGQR
With B6, the binding result in test [4] is on record as “binds”.
